Laboratory results published in patent publication US6743604.
No constants are given. Whether binding was seen depends on the method and setting. Some binding calls cover weakened binding; strength is not graded here.

Chains of the proteins cited; added tags and fusions are not shown. Lines headed by an entry give the natural chain unless they say otherwise; changes in a name come on top. Residues count along the entry.
UniProt P24394: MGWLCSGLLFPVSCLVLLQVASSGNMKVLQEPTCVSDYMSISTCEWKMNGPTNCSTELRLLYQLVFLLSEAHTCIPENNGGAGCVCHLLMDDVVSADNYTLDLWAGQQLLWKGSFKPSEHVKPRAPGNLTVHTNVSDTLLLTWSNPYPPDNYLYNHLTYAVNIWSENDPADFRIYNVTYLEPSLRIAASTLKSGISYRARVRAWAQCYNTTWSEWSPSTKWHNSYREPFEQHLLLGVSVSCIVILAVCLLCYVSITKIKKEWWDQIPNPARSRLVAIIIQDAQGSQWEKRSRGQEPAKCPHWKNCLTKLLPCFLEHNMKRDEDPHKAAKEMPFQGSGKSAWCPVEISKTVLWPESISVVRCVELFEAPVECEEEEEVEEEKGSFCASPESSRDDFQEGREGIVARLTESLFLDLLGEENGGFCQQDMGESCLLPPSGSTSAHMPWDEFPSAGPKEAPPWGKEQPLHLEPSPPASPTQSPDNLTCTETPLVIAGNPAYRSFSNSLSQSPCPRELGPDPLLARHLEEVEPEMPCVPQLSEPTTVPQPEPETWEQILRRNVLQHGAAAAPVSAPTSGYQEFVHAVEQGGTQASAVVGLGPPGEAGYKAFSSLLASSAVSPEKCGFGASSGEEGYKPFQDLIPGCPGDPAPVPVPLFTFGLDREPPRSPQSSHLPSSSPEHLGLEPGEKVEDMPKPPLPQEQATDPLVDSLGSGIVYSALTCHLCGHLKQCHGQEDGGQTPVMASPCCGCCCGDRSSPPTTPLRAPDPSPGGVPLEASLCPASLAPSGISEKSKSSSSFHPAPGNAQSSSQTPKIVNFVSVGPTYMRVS
UniProt P35225, residues 35-146: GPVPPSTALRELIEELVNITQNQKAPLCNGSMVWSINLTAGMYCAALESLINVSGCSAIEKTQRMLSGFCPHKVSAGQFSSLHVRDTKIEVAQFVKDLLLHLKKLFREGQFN

Experiments:
[1] = molecular target: T1, human IL-13 receptor α1 chain (cDNA clone 3.1) expressed on transiently transfected COS7 cells (human) (UniProt P78552); assay: binding to Cos transfectants
T1 sequence: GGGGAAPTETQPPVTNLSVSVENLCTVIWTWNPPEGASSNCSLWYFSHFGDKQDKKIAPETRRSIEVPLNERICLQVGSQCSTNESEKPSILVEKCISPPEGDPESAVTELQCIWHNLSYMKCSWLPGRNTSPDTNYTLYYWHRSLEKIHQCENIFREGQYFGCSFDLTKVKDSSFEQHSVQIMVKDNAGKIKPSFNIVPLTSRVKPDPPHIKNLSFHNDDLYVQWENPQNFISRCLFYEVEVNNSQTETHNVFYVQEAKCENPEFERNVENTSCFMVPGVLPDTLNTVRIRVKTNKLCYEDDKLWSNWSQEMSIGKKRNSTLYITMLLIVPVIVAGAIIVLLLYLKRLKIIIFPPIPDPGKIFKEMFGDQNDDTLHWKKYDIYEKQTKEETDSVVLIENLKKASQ

[2] = molecular target: human IL13Rα1 co-expressed with human IL4Rα on transiently co-transfected COS7 cells (heterologous IL4/IL13R complex) (human) (UniProt P24394); assay: binding to Cos co-transfectants
[3] = molecular target: human IL13Rα1 co-expressed with human IL4Rα on transiently co-transfected COS7 cells (heterologous IL4/IL13R complex) (human) (UniProt P24394); assay: radioligand binding on co-transfected COS7 cells
[4] = molecular target: T1, human IL-13 receptor α1 chain (cDNA clone 3.1) expressed on transiently transfected COS7 cells (human); assay: radioligand binding on COS7 cells transfected with IL13Rα1
[5] = molecular target: T1, human IL-13 receptor α1 chain (cDNA clone 3.1) expressed on transiently transfected COS7 cells (human); assay: radioligand affinity cross-linking, SDS-PAGE, COS7 transfectants

Measured: binding

human IL-13 (from UniProt P35225 35-146) (ligand)
binds: all assays above
